# From patent US8957114B2, “Formulations, salts and polymorphs of transnorsertraline and uses thereof” (Sunovion Pharmaceuticals Inc., priority 2009, dated 2015)
# Some results were stated once for a whole list of compounds, not compound by compound. For at least one compound, name, drawing or mass did not settle the structure. Some compounds share one range, which may span the group rather than tell each member.
# Experiment: VTI moisture sorption isotherm (hygroscopicity)
# Type: physicochemical
# Settings: from 25 to 95% RH
# Method: Each salt was analyzed by coulometric titration using an EM Scientific Aquastar C3000 titrator to determine water content. […] Each salt was analyzed using a Perkin Elmer TGA 7 Thermal Gravimetric Analyzer (TGA). […] Moisture sorption isotherms for each salt were generated using the VTI SGA-100 Symmetric Vapor Sorption Analyzer. Samples were run as received without pre-analysis drying. Equilibrium criteria were the lesser of 0.01 wt % change in 5 minutes or 180 minutes at each relative humidity (RH) step. […] Analysis was repeated for each sample in consecutive analyses (sample was not removed from analyzer). Sample sizes ranged from 18 mg to 35 mg.
structure (smiles),measurement,value
N[C@@H]1CC[C@@H](c2ccc(Cl)c(Cl)c2)c2ccccc21.O=C1CC[C@@H](C(=O)O)N1,moisture uptake (VTI),2.7 to 17.3%
